Changes are numbered by the printed parent chain. No constants are given. Whether binding was seen depends on the method and setting. Some results given as binding are weak or reduced against the parent protein; the word gives no strength.
Experiments:
[1] = target: human CSF-1R extracellular domain (CSF-1R-ECD) (human) (UniProt P07333); test: BIAcore (FIG. 2)
[2] = target: CSF-1R ECD variant E29A (human) (UniProt P07333); test: ELISA on CSF-1R ECD mutant
[3] = target: CSF-1R ECD variant W159G (human) (UniProt P07333); test: ELISA on CSF-1R ECD mutant
[4] = target: CSF-1R ECD variant W50G (human) (UniProt P07333); test: ELISA on CSF-1R ECD mutant
[5] = target: human CSF-1R on the cell surface (THP-1 cells, endogenous; Ba/F3 cells stably expressing full-length human CSF-1R) (human) (UniProt P07333); test: flow cytometry on THP-1 cells
[6] = target: human CSF-1R-Fc protein (M-CSF R/CD115 Fc chimera, R&D Systems) (human) (UniProt P07333); test: ELISA, M-CSF R/CD115 Fc chimera coated (FIG. 1)
[7] = target: human CSF-1R extracellular domain (CSF-1R-ECD) (human) (UniProt P07333); test: ELISA, coated CSF1R-ECD (unmutated), AB21 titrated, Abs450
[8] = target: CSF-1R ECD variant E29A (human) (UniProt P07333); test: ELISA, coated CSF-1R ECD variant E29A, AB21 titrated, Abs450
[9] = target: CSF-1R ECD variant W50G (human) (UniProt P07333); test: ELISA, coated CSF-1R ECD variant W50G, AB21 titrated, Abs450
[10] = target: CSF-1R ECD variant W159G (human) (UniProt P07333); test: ELISA, coated CSF-1R ECD variant W159G, AB21 titrated, Abs450
[11] = target: T1, CSF-1R-ECD-human Fc (in house) (human, UniProt P07333 20-512); test: competition ELISA on coated CSF-1R-ECD-hFc; competitors RG7155, FPA008, IMC-CS4
T1 construct: In-house fusion; also called CSF-1R-ECD-hFc; CSF1R-ECD-hFc; not shown: human Fc

By UniProt entry, the sequences of proteins in these tests, tags left out. Where a name states a change or a piece, a line headed by the entry shows the natural chain unless it says otherwise. Residues count along the entry.
UniProt P07333: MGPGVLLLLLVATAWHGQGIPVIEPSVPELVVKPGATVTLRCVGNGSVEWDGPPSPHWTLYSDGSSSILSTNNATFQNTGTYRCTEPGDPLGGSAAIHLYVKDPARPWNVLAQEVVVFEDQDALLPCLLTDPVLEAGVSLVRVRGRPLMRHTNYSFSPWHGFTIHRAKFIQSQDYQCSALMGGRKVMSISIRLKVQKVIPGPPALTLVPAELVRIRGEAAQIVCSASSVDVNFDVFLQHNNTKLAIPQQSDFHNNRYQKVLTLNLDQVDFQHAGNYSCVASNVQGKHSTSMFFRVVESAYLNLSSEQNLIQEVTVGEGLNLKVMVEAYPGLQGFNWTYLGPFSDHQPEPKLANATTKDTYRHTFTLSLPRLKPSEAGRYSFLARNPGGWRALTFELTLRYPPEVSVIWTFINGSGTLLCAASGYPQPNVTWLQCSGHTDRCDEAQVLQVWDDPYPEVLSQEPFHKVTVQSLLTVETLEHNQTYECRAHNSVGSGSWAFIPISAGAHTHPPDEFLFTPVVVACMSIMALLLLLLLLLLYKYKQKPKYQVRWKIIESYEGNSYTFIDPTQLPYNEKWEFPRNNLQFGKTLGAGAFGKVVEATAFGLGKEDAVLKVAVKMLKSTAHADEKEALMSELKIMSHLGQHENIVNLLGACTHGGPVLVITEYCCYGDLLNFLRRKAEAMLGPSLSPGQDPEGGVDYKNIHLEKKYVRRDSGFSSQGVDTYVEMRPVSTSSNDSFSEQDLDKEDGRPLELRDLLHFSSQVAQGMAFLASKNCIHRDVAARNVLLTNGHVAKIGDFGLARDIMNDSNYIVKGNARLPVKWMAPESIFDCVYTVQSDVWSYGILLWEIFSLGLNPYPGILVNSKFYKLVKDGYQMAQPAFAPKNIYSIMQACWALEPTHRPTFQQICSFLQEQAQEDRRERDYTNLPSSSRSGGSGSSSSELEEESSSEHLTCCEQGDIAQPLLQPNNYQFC
human CSF-1R on the cell surface (THP-1 cells, endogenous; Ba/F3 cells stably expressing full-length human CSF-1R): residues 20-972 of P07333
human CSF-1R-Fc protein (M-CSF R/CD115 Fc chimera, R&D Systems): residues 20-512 of P07333

[12] = target: T1, CSF-1R-ECD-human Fc (in house); test: competition ELISA: coated CSF-1R-ECD-hFc, first incubated with FPA008 or nothing, then AB21 titrated, mouse second antibody, 450 nm
[13] = target: T1, CSF-1R-ECD-human Fc (in house); test: competition ELISA: coated CSF-1R-ECD-hFc, first incubated with RG7155 (1 ug/mL), IMC-CS4 (0.25 ug/mL) or nothing, then AB21 titrated, mouse second antibody, 450 nm
[14] = target: T1, CSF-1R-ECD-human Fc (in house); test: blocking ELISA: coated CSF-1R-ECD-human Fc, AB21 titrated together with M-CSF, bound CSF-1 detected with biotinylated anti-CSF-1 BAF216 and streptavidin-HRP, Abs450
Method: CSF-1R-ECD-human Fe (in house) is diluted to 1.2 μg/ml with coating buffer and coating overnight at 4° C. After incubation step, plates were washed 1 time with the wash buffer and blocking with 1% casein blocking buffer at room temperature for 2 hours. Different dilutions of purified AB21 antibodies were incubated with 250 ng/ml of M-CSF (R&D system, 216-GMP-025) in dilution buffer at 37° C. for 1 hour. After 5 times of wash, the ligand which bound to the receptor can be detected by 50 ng/ml biotinylated […] clone BAF216 (R&D Systems, UK) and 1:5000 diluted streptavidin HRP (Roche Diagnostics GmbH, DE, Cat. No. 11089153001) after 1 hour incubation. Anti CSF-1R SC 2-4A5 (Santa Cruz Biotechnology, US), which inhibits the ligand-receptor interaction, was used as positive control. Plates were developed with TMB Microwell Peroxidase Substrate (KPL, 95059-154). Absorbance was measured at 450 nm. A decrease of absorbance is found, if the anti-CST-1R antibody causes a release of CSF-1 from the dimeric complex. […] Therefore, antibodies of the invention can be used to prevent or treat diseases mediated by CSF-1R or CSF-1.

[15] = target: T1, CSF-1R-ECD-human Fc (in house); test: ELISA, coated CSF1R-ECD-hFc 1 ug/ml, anti-kappa HRP, OD450
Method: (§1) To know the binding affinity differences among individual antibodies, ELISA method was used. ELISA plate was coated with 1 μg/ml of CSF1R-ECD-hFc, then add assay antibodies diluted from 50 nM to 1×10⁻⁵ nM (5-10× fold dilution). Assay was measured by adding anti-kappa HRP secondary antibody (1:5000 dilution). Binding curve and KD were determined with GraphPad Prism software using one site-specific binding for nonlinear fit methods. […] This loss of avidity was recovered by back mutations, as evidenced by humanized antibodies B1-Hu, B2-Hu, B1-B1, and B2-B1 clones. (See FIG. 11 and FIG. 12).

[16] = target: T1, CSF-1R-ECD-human Fc (in house); test: ELISA, CSF1R-ECD-hFc coated at 1 ug/ml, anti-kappa HRP
Method: as §1

Measured: binding

B1: mouse hybridoma anti-human CSF-1R antibody mAb AB21 (antibody, V domains shown)
VH: EVQLQQSGPELEKPGASVKISCKASGYSFTGYNMNWVKQSNGKSLEWIGNIDPYYGGTTYNQKFKGKATLTVDKSSSTAYMQLKSLTSEDSAVYYCARRGDYSGSSYWYFDVWGAGTTVTVSS
VL: DIQMTQSSSYLSVSLGGRVTITCKASDHINNWLAWYQQKPGNAPRLLISGATSLETGVPSRFSGSGSGKDYTLSITSLQTEDVVTYYCQQYWSTPFTFGSGTKLEIK
notes: Mouse monoclonal antibody purified from hybridoma ascites (Protein A); also called AB21 mAb; mAb 21
not listed: [15] | [16]
binds: all other assays above

B2: humanized AB21 B1-B1 (AB21 VHB1 with AB21 VLB1) (antibody, V domains shown)
VH: EVQLVQSGAEVKKPGATVKISCKVSGYSFTGYNMNWVQQAPGKGLEWMGNIDPYYGGTTYNQKFKGKATLTVDKSTSTAYMELSSLRSEDTAVYYCARRGDYSGSSYWYFDVWGQGTLVTVSS
VL: DIQMTQSPSSLSASLGDRVTITCKASDHINNWLAWYQQKPGKAPKLLLSGATSLETGVPSRFSGSGSGTDYTLTISSLQPEDFATYYCQQYWSTPFTFGQGTKVEIK
notes: Human IgG from vector pTCAE8-AB21 in FreeStyle 293 cells, kappa light chain; also called heavy chain B1 combined with light chain B1
binds: [15]

B3: humanized AB21 B2-Hu (Hu AB21 VHB2 with Hu AB21 VL) (antibody, V domains shown)
VH: B2 VH with T17S, Q38K, M48I
VL: B2 VL with L15V, S49Y
notes: Human IgG from vector pTCAE8-AB21 in FreeStyle 293 cells, kappa light chain
binds: [16] | [15]

B4: humanized AB21 Hu-Hu (Hu AB21 VH with Hu AB21 VL), the initial humanized antibody (antibody, V domains shown)
VH: B2 VH with K67R, A68V, L70I, V72A, K74T, S77D, R98T
VL: B2 VL with L15V, S49Y
notes: Human IgG from vector pTCAE8-AB21 in FreeStyle 293 cells, kappa light chain (anti-kappa HRP detection); also called heavy chain Hu combined light chain Hu
binds: [15]

B5: humanized AB21 B2-B1 (Hu AB21 VHB2 with AB21 VLB1) (antibody, V domains shown)
VH: B2 VH with T17S, Q38K, M48I
VL: B2 VL
binds: [16] | [15]

From patent US20220064310A1 (DEVELOPMENT CENTER FOR BIOTECHNOLOGY, published 2022)
